Test results taken from PubChem BioAssay (NCATS).
The inconclusive results got no clear call from the source; some entries with a clear call stand among them for comparison. For some assays here: Where the call is inconclusive, the potency comes from a doubtful curve fit. Active and inactive are the calls of the source. Unless noted, calls follow the shape of the dose curve; as a rule, active = well fitted curve in the direction sought with a large enough effect; inconclusive = small, poorly fitted or top-dose-only effect, or another doubt; inactive = no such curve, though single readings can be large; an effect the other way counts as inactive or inconclusive.

By UniProt entry, the sequences of proteins in these tests, tags left out.
UniProt P08684, whole entry, looked up: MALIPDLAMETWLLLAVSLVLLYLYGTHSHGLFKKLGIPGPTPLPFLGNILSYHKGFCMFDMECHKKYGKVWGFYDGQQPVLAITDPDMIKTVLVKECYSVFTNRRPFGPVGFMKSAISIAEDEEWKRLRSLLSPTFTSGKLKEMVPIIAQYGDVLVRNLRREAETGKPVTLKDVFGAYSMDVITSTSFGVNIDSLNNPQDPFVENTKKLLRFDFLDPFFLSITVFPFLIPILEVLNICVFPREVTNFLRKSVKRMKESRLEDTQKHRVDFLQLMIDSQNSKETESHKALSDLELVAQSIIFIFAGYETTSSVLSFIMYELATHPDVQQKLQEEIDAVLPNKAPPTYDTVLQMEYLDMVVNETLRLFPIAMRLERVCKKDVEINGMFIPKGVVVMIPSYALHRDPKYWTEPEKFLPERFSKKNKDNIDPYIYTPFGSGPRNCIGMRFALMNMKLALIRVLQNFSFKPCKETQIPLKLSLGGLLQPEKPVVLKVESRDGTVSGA
UniProt P10635, whole entry, looked up: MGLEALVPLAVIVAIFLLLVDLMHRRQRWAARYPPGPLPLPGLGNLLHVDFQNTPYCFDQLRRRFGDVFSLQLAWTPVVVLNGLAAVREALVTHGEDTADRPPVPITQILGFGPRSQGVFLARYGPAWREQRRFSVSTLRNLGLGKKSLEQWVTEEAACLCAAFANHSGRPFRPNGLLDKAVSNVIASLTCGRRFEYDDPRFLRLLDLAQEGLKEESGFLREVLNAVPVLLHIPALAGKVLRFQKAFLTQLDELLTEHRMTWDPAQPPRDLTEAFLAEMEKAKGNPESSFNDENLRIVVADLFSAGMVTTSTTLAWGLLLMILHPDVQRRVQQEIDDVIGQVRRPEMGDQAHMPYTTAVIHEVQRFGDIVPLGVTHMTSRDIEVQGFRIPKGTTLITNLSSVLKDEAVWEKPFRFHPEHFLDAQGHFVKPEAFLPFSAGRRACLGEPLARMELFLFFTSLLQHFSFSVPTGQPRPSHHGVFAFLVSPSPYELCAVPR

Columns and labels:
[1] = Quantitative High-Throughput drug screen in 47 multiple myeloma cell lines against the NCATS MIPE library collection: VP6_DJ cell viability assay (AID 1919867); also: nearly all actives have a fitted effect of over 40% in size; also: potency is read from the fitted curve at half-maximal effect
Procedure, shortened: (§1)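 MIPE 4.0 approved/investigational drugs; 500 cells/well; 48 h 37 °C humidified 5% CO2; CTG luminescence readout; DMSO = 100%, media = 0% viability.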

[2] = Quantitative High-Throughput drug screen in 47 multiple myeloma cell lines against the NCATS MIPE library collection: UTMC2_PLB cell viability assay (AID 1919868); details: CellTiter-Glo ATP luminescence, 48 h; series mostly up to 45.8 µM; also: nearly all actives have a fitted effect of over 55% in size; also: potency is read from the fitted curve at half-maximal effect
Procedure, shortened: as §1

[3] = Quantitative High-Throughput drug screen in 47 multiple myeloma cell lines against the NCATS MIPE library collection: PE2_PLB cell viability assay (AID 1919869); details: PE2_PLB myeloma cells viability, ATP luminescence, 48 h; viability (% of control): at 45.8 µM (top of the series); also: nearly all actives have a fitted effect of over 35% in size; also: potency is read from the fitted curve at half-maximal effect
Procedure, shortened: as §1

[4] = Quantitative High-Throughput drug screen in 47 multiple myeloma cell lines against the NCATS MIPE library collection: PCM6_Riken cell viability assay (AID 1919870); also: nearly all actives have a fitted effect of over 30% in size; also: potency is read from the fitted curve at half-maximal effect
Procedure, shortened: as §1

[5] = Quantitative High-Throughput drug screen in 47 multiple myeloma cell lines against the NCATS MIPE library collection: RPMI8226_ATCC cell viability assay (AID 1919871); details: RPMI8226 myeloma viability, CellTiter-Glo ATP luminescence, 48 h; viability (% of control): at 45.8 µM (top of the series); also: nearly all actives have a fitted effect of over 30% in size; also: potency is read from the fitted curve at half-maximal effect
Procedure, shortened: as §1

[6] = Quantitative High-Throughput drug screen in 47 multiple myeloma cell lines against the NCATS MIPE library collection: KMS11_JCRBsus cell viability assay (AID 1919873); also: nearly all actives have a fitted effect of over 50% in size; also: potency is read from the fitted curve at half-maximal effect
Procedure, shortened: as §1

[7] = Quantitative High-Throughput drug screen in 47 multiple myeloma cell lines against the NCATS MIPE library collection: KMS28BM_JCRB cell viability assay (AID 1919874); details: CellTiter-Glo ATP, 48 h; series mostly up to 45.8 µM; also: nearly all actives have a fitted effect of over 35% in size; also: potency is read from the fitted curve at half-maximal effect
Procedure, shortened: as §1

[8] = qHTS profiling for inhibitors of Plasmodium falciparum proliferation (AID 504749); also: nearly all actives have a fitted effect of over 60% in size; also: potency is read from the fitted curve at half-maximal effect; details: P. falciparum in erythrocytes, SYBR Green DNA, 72 h; Potency: parasite line B unless noted; series mostly up to 28.7 µM
Procedure, shortened: (§2)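 Parasite proliferation within erythrocytes, 72 h exposure. Endpoint: SYBR Green I fluorescence after overnight lysis at room temperature. Controls: 0.29 uM artemisinin, DMSO.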

[9] = Quantitative High-Throughput drug screen in 47 multiple myeloma cell lines against the NCATS MIPE library collection: OPM2_DSMZ cell viability assay (AID 1919872); also: nearly all actives have a fitted effect of over 30% in size; also: potency is read from the fitted curve at half-maximal effect
Procedure, shortened: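 We plated 500 myeloma cells per well, pinned in MIPE 4.0 compounds, and incubated for 48 hours at 37C. ATP was then quantified with CellTiter-Glo, with DMSO and media-only wells defining 100% and 0%.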

[10] = qHTS for identification of novel therapeutic agents for treatment of microphthalmiaassociated transcription factor (MiT) renal cell carcinoma (RCC) (AID 1963991; calls by dose curve; also: potency is read from the fitted curve at half-maximal effect); details: TFE3-RCC UOK109 viability, CellTiter-Glo, 48 h; active = Z-AUC below -0.8 in all three lines
Procedure, shortened: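 Three TFE3-fusion RCC cell lines (UOK109, UOK124, UOK145), 500 cells/well, were exposed to the 1912-compound MIPE 4.0 library for 48 hours at 37 C. Viability was read by CellTiter-Glo luminescence, normalised to DMSO (100%) and empty wells (0%), with 11-concentration curve fits.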

[11] = target: Cytochrome P450 3A4 (Homo sapiens) (UniProt P08684); assay: qHTS for inhibitors of CYP3A4 against the NCATS DSHEA and TCM libraries (AID 1919971);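 also: inhibition lowers luminescence from luciferin made by CYP3A4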
Procedure, shortened: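 Read-out is luminescence after P450-Glo detection (30 min, RT). Before that: 15 min compound–enzyme preincubation, then 30-45 min reaction with 1x NADPH regeneration solution, substrate concentration isoform-specific.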

[12] = target: Cytochrome P450 2D6 (Homo sapiens) (UniProt P10635); assay: qHTS for inhibitors of CYP2D6 against the NCATS DSHEA and TCM libraries (AID 1919972)
Procedure, shortened: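 Luminescent P450-Glo read-out of CYP2D6 turnover of a luciferin substrate after NADPH-driven reaction of 30-45 min at room temperature. Compounds were first preincubated 15 min with enzyme at titrated concentrations; quinidine was the intraplate control.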

3D7 = assay: qHTS profiling for inhibitors of Plasmodium falciparum proliferation (AID 504749); also: nearly all actives have a fitted effect of over 60% in size; also: potency is read from the fitted curve at half-maximal effect; details: P. falciparum in erythrocytes, SYBR Green DNA, 72 h; series mostly up to 28.7 µM
Procedure, shortened: as §2

7G8 = assay: as above; details: P. falciparum in erythrocytes, SYBR Green DNA, 72 h; series mostly up to 28.7 µM
Procedure, shortened: as §2

Measured: Potency

CC[C@H](CC[C@@H](C)[C@H]1CC[C@H]2[C@@H]3CC=C4C[C@@H](O)CC[C@]4(C)[C@@H]3CC[C@]12C)C(C)C
inactive: [3] | [4] | [5] | [6] | [7]
inconclusive: [1] 0.59 µM [cytotoxic, full curve, poor fit] | [2] 6.62 µM [cytotoxic, partial curve, poor fit]

CCOC(=O)c1ccc(C#Cc2ccc3c(c2)C(C)(C)CCS3)nc1
inconclusive: [1] 33.2 µM [cytotoxic, single point] | [2] 0.0093 µM [rising, full curve, poor fit] | [4] 37.2 µM [cytotoxic, single point] | [6] 37.2 µM [cytotoxic, single point] | [8] 11.2 µM [inhibitor, single point] [parasite line A]
inactive: [3] | [5] | [7]

COc1ccc(CCN2CCN(CCCc3ccccc3)CC2)cc1OC
inactive: [3] | [4]
inconclusive: [1] 3.72 µM [cytotoxic, full curve, poor fit] | [2] 2.96 µM [rising, full curve, poor fit] | [9] 0.0296 µM [rising, full curve, poor fit] | [6] 20.9 µM [cytotoxic, single point] | [10] 20.9 µM [falling, partial curve]

C[C@@H]1[C@H](C)CC[C@]2(C(=O)O)CC[C@]3(C)C(=CC[C@@H]4[C@@]5(C)C[C@@H](O)[C@H](O)[C@@](C)(CO)[C@H]5CC[C@]43C)[C@@H]12
inactive: [1] | [2] | [3] | [4] | [6] | [7]
inconclusive: [5] 7.43 µM [rising, partial curve, poor fit]

c1ccc([C@H]2CN3CCSC3=N2)cc1
inactive: [2] | [3] | [6] | [7]
inconclusive: [1] 16.6 µM [cytotoxic, partial curve, poor fit] | [4] 18.7 µM [cytotoxic, partial curve, poor fit] | [5] 0.418 µM [rising, partial curve, poor fit]

C1COC(NC(C2CC2)C2CC2)=N1
inconclusive: [1] 16.6 µM [cytotoxic, partial curve] | [2] 33.2 µM [rising, single point] | [3] 26.4 µM [cytotoxic, single point] | [4] 20.9 µM [cytotoxic, partial curve] | [5] 0.0033 µM [rising, full curve, poor fit]
inactive: [7]

CC[C@H]1OC(=O)[C@H](C)[C@@H](O[C@H]2C[C@@](C)(OC)[C@@H](O)[C@H](C)O2)[C@H](C)[C@@H](O[C@@H]2O[C@@H](C)C[C@H](N(C)C)[C@@H]2O)[C@](C)(O)C[C@@H](C)C(=O)[C@H](C)[C@@H](O)[C@]1(C)O
inconclusive: [2] 0.0132 µM [rising, full curve, poor fit] | [3] 20.9 µM [cytotoxic, partial curve]
inactive: [1] | [4] | [5] | [6]

NC(=O)c1cnccn1
inactive: [3] | [4] | [5] | [11] | [12]
inconclusive: [1] 0.0264 µM [rising, full curve, poor fit] | [2] 11.8 µM [rising, partial curve, poor fit]

CCCCCN(CCC12CC3CC(CC(C3)C1)C2)C(=O)NCCCc1ccncc1
inconclusive: [1] 23.5 µM [cytotoxic, partial curve, poor fit] | [3] 26.4 µM [cytotoxic, single point] | [4] 20.9 µM [cytotoxic, partial curve] | [10] 18.7 µM [falling, partial curve]
inactive: [9]
active: [2] 18.7 µM

CC(C)(C)C(=O)Oc1ccc(S(=O)(=O)Nc2ccccc2C(=O)NCC(=O)O)cc1
inactive: [9] | [6]
inconclusive: [1] 11.8 µM [cytotoxic, partial curve] | [2] 16.6 µM [cytotoxic, partial curve, poor fit] | [3] 33.2 µM [cytotoxic, single point] | [4] 7.43 µM [cytotoxic, partial curve, poor fit]

3 entries already listed, arranged by length of the SMILES, rising:
C1COC(NC(C2CC2)C2CC2)=N1
inconclusive: [1] 16.6 µM [cytotoxic, partial curve] | [2] 33.2 µM [rising, single point] | [3] 26.4 µM [cytotoxic, single point] | [4] 20.9 µM [cytotoxic, partial curve] | [5] 0.0033 µM [rising, full curve, poor fit]
inactive: [7]

CCCCCN(CCC12CC3CC(CC(C3)C1)C2)C(=O)NCCCc1ccncc1
inconclusive: [1] 23.5 µM [cytotoxic, partial curve, poor fit] | [3] 26.4 µM [cytotoxic, single point] | [4] 20.9 µM [cytotoxic, partial curve] | [10] 18.7 µM [falling, partial curve]
inactive: [9]
active: [2] 18.7 µM

CC[C@H]1OC(=O)[C@H](C)[C@@H](O[C@H]2C[C@@](C)(OC)[C@@H](O)[C@H](C)O2)[C@H](C)[C@@H](O[C@@H]2O[C@@H](C)C[C@H](N(C)C)[C@@H]2O)[C@](C)(O)C[C@@H](C)C(=O)[C@H](C)[C@@H](O)[C@]1(C)O
inconclusive: [2] 0.0132 µM [rising, full curve, poor fit] | [3] 20.9 µM [cytotoxic, partial curve]
inactive: [1] | [4] | [5] | [6]

(cont.)

COc1ccc(-c2ccc3ncc4c(c3c2)n(-c2ccc(N3CCNCC3)c(C(F)(F)F)c2)c(=O)n4C)cn1
active: [10] 1.48 µM
inconclusive: [1] 0.148 µM [cytotoxic, partial curve, poor fit] | [2] 0.0019 µM [cytotoxic, full curve] | [3] 0.0033 µM [cytotoxic, partial curve, poor fit] | [4] 0.0042 µM [cytotoxic, full curve] | [9] 0.0059 µM [cytotoxic, full curve] | [6] 0.0093 µM [cytotoxic, full curve] | [7] 0.0053 µM [cytotoxic, full curve]

Cc1cc(C(C)(C)C)cc(C)c1CC1=NCCN1
inactive: [2] | [9] | [6] | [8]
inconclusive: [1] 4.18 µM [cytotoxic, partial curve, poor fit] | [3] 0.001 µM [cytotoxic] | [4] 10.5 µM [cytotoxic, partial curve, poor fit] | [10] 20.9 µM [falling, single point]

CN(C)c1nc(Cc2ccc(NC(=O)c3ccc4ccccc4c3)cc2)nc(Cl)c1CC(=O)O
inactive: [1] | [3] | [4] | [9]
inconclusive: [2] 33.2 µM [rising, single point] | [6] 10.5 µM [cytotoxic, single point]

NC(N)=NC(=O)c1nc(Cl)c(N)nc1N
inconclusive: [1] 8.33 µM [cytotoxic, single point] | [2] 4.18 µM [rising, partial curve, poor fit] | [3] 9.35 µM [cytotoxic, single point] | [4] 7.43 µM [cytotoxic, single point] | [5] 0.0033 µM [rising, full curve] | [6] 0.0469 µM [cytotoxic, full curve, poor fit] | [7] 0.0526 µM [cytotoxic, full curve, poor fit] | [10] 16.6 µM [falling, partial curve] | 3D7 = 10 µM [inhibitor, single point]
active: 7G8 = 2 µM

CCOC(=O)[C@@H](N)CCC(=O)N[C@@H](CSCc1ccccc1)C(=O)N[C@@H](C(=O)OCC)c1ccccc1
inconclusive: [1] 37.2 µM [cytotoxic, single point] | [4] 37.2 µM [cytotoxic, single point] | [9] 33.2 µM [cytotoxic, single point]
active: [2] 23.5 µM | [3] 20.9 µM

Cc1cc2c(F)c(Oc3ncnn4cc(OC[C@@H](C)O)c(C)c34)ccc2[nH]1
inconclusive: [1] 6.62 µM [cytotoxic, full curve, poor fit] | [2] 11.8 µM [rising, partial curve, poor fit] | [3] 11.8 µM [cytotoxic, partial curve, poor fit] | [4] 0.662 µM [cytotoxic, full curve, poor fit] | [5] 20.9 µM [cytotoxic, partial curve, poor fit] | [6] 20.9 µM [cytotoxic, partial curve] | [7] 23.5 µM [cytotoxic, partial curve] | [10] 23.5 µM

COc1ccc(Cc2nccc3cc(OC)c(OC)cc23)cc1OC
inconclusive: [1] 37.2 µM [cytotoxic, single point] | [3] 23.5 µM [cytotoxic, single point] | [4] 23.5 µM [cytotoxic, partial curve] | [10] 23.5 µM [falling, partial curve, poor fit] | 3D7 = 1 µM [inhibitor, partial curve, poor fit]
inactive: [2]
active: [9] 11.8 µM

O=C(c1ccc(F)cc1)C1CCN(CCn2c(=O)[nH]c3ccccc3c2=O)CC1
inactive: [2] | [3] | [9]
inconclusive: [1] 0.0012 µM [rising, full curve, poor fit] | [4] 0.001 µM | [6] 0.935 µM [cytotoxic, full curve, poor fit] | [7] 0.0026 µM [cytotoxic, full curve, poor fit]

N#CC(=C(O)c1ccc(Cl)cc1Cl)c1nc2cc(Cl)ccc2c(=O)[nH]1
inactive: [2] | [6]
active: [1] 16.6 µM
inconclusive: [3] 9.35 µM [cytotoxic, full curve, poor fit] | [4] 9.35 µM [cytotoxic, partial curve, poor fit]
